Laboratory results: publication PMC3841102, “Activation of Smurf E3 Ligase Promoted by Smoothened Regulates Hedgehog Signaling through Targeting Patched Turnover” (PLoS Biology, 2013)
No constants are given. Whether binding was seen depends on the method and setting. Binding seen in cells or lysates may run through a third protein. Some entries that bind do so weakly or less than the wild type. For some assays here: Tags and fused reporters may be left off the sequences shown.

Experiments:
[1] = target: T1, Myc-tagged Ptc (full-length Patched) (Drosophila) (UniProt P18502); test: co-IP; transfected S2 cells, lysates after 48 h; anti-Flag M2 affinity gel or anti-Myc affinity gel; NaCl adjusted to 500 mM, washes with 500 mM NaCl; Western blot; for Smo with Smurf (Figure 5C,D) cells treated with Hh medium for 12 h
T1 sequence: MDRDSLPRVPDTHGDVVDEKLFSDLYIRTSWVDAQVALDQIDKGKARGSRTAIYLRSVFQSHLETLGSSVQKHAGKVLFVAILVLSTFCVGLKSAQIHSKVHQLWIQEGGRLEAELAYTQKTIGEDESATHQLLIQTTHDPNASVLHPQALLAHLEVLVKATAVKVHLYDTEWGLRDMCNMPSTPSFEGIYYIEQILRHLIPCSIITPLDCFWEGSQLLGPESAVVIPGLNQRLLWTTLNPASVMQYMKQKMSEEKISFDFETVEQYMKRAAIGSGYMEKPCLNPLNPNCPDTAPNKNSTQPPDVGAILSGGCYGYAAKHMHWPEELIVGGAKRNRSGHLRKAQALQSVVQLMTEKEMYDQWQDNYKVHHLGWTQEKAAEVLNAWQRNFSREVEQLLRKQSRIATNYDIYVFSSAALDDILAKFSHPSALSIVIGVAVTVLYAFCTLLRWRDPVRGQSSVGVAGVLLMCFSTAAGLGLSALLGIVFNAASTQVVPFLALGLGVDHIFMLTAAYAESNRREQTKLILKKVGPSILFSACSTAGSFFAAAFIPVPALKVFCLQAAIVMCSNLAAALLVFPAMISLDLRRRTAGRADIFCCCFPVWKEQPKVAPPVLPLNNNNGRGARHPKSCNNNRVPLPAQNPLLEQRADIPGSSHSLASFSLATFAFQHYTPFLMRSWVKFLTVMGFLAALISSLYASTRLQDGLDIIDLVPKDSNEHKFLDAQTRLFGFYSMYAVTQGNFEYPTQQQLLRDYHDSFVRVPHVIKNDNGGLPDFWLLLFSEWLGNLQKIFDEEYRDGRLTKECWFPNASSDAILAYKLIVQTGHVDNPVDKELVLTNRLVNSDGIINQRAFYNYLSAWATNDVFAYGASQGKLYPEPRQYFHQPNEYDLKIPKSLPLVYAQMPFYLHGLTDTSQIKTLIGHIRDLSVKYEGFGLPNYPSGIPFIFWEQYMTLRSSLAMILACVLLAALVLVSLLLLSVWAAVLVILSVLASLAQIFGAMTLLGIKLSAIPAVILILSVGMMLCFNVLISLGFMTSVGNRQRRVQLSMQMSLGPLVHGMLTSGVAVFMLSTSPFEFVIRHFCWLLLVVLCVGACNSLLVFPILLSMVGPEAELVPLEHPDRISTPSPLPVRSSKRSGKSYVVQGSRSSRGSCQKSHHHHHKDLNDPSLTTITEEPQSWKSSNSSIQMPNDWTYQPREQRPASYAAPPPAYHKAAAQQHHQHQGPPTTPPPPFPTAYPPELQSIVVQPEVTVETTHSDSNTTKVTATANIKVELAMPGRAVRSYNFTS

[2] = target: T2, endogenous Ptc protein (Drosophila (endogenous in S2 cells)) (UniProt P18502); test: co-IP; S2 cell lysates, endogenous proteins; immunoprecipitated with mouse anti-Ptc antibody or control mouse IgG; Western blot
T2 sequence: T1 sequence

B1: Flag-tagged Smurf (enzyme, UniProt Q9V853 1-1061)
chain: MNKLDYPRRNGTHKVRITILCARNLARKDLFRLPDPFAKVQVDGTGQVYSTEISKSSLDPKWNAHYDLFLGIGDAITITVWNQRKIHKGSGFLGCVRIPAFNIQSLKGAGFQRLDLGKLSPDDDELVRGQIIISLLSKDGPSSGNPLAIVGPSGDVRGPSEDDSSEDSLPEGWEERRTDNGRVYYVNHATKSTQWDRPRQPGVVGSSHATSPQQRHNTHNGNSGDRQAPAGPTRSTTCTNLMNNGHRSRDLSVTASDERRHSTEILSSVGKENTSPTTPVSATTTPGKKTSSSNSSSAGGRTLEQRPTNEPATPTSSTTSASVRLHSNDNHVKTPKHQTNGHAPPESTPTSPTGQQNYVNGNAQNGSTSGNGSGQAAQPQSASNGWTQEDAATTTSPSTTTSPPRHSQSPPTPNISPPASVTPSANGNVHSPNANSTPAGSGGGSRSYTAATPGQRSQRRSSRQQGEESSTRRRSSRGTRNGGTSGGGGGGGSGQRYASAAIAAANQAARPFLDLPPGYEMRTTQQGQVYFYHIPTGVSTWHDPRIPRDFDTQHLTLDAIGPLPSGWEQRKTASGRVYFVDHNNRTTQFTDPRLSGSILQMIRRGTVPPTSAANAGTPAPPSATPATPSAAAAVPPQATPASNATPTTLTTTTNPPHRIVPDLPQGLLEGADLLPKYRRDLVGKLRALRTELQTMQPQSGHCRLEVSRNEIFEESYRLIMKMRAKDMRKRLMVKFKGEEGLDYGGVAREWLHLLSREMLNPQYGLFQYSRDDHYTLQINPDSGVNPDHLSYFHFVGRTLGIAVFHGHCLDGGFTTPFYKQLLNKPITLGDIEGVDPDLHRSLTWMLESNISGIIESTFSVENNSFGALVVHELKPGGASIPVTEENKREYVKLYVNYRFMRGIEQQFLALQKGFCELIPSHLLRPFDERELELVIGGISSIDVNDWRNNTRLKHCTNETTQVLWFWQVVESYSSEMRARLLQFVTGSSRVPLQGFRALQGSTGAVGPRLFTIHLTADVPTQNLPKAHTCFNRIDLPPYETYQLLCDKLTQAVEETCGFAVE
B1 was tested, and the binding [1] was “binds”.

B2: endogenous Smurf protein (enzyme, UniProt Q9V853 1-1061)
chain: B1 chain
B2 was tested, and the binding [2] was “binds”.
